Test results from patent US20250101023A1, “HETEROARYL DERIVATIVE AND USES THEREOF” (IUCF-HYU (INDUSTRY-UNIVERSITY COOPERATION FOUNDATION …, priority 2022, published 2025).
The structures given here were assigned with low confidence; some may be wrong.

Sequences of proteins named here, by UniProt entry; tags and fusion partners are left off.
UniProt Q9NYV4, whole entry: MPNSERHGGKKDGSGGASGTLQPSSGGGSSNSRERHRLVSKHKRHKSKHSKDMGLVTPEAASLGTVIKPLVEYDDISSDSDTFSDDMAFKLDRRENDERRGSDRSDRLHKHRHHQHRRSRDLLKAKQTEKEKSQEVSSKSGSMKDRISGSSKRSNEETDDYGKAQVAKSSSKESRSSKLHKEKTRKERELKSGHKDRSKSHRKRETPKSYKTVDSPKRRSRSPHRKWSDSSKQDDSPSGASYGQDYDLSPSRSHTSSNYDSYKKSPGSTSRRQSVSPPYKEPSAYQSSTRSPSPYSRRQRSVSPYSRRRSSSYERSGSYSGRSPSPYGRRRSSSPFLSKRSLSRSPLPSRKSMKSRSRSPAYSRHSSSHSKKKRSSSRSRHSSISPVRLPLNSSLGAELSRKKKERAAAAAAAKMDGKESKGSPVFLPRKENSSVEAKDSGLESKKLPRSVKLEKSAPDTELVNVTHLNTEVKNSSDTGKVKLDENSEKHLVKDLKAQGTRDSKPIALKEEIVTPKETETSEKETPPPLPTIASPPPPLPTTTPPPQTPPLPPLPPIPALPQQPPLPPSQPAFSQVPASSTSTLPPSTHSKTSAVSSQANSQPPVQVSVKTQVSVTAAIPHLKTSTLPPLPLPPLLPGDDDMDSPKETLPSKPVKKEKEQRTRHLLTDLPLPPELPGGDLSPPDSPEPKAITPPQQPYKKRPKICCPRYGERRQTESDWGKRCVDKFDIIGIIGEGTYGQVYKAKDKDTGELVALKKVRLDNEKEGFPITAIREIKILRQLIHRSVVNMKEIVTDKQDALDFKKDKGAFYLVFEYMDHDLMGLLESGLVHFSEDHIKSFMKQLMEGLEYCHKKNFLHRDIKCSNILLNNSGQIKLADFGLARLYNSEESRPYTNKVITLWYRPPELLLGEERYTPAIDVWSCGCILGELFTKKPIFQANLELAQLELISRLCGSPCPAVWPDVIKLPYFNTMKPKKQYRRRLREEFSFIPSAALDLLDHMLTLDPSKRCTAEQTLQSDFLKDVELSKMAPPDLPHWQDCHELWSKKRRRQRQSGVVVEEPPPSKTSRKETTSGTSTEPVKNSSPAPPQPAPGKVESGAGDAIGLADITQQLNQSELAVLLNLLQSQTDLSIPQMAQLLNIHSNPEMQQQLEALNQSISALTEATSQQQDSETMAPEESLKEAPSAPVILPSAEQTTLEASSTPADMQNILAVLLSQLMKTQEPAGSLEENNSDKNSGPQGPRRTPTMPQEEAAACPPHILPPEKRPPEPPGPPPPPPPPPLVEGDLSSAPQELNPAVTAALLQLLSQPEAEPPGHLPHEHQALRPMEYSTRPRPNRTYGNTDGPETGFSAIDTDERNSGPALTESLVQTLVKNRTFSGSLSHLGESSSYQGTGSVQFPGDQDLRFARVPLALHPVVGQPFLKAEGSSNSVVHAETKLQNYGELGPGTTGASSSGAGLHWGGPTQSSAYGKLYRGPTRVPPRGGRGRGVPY
UniProt O75909, whole entry partner: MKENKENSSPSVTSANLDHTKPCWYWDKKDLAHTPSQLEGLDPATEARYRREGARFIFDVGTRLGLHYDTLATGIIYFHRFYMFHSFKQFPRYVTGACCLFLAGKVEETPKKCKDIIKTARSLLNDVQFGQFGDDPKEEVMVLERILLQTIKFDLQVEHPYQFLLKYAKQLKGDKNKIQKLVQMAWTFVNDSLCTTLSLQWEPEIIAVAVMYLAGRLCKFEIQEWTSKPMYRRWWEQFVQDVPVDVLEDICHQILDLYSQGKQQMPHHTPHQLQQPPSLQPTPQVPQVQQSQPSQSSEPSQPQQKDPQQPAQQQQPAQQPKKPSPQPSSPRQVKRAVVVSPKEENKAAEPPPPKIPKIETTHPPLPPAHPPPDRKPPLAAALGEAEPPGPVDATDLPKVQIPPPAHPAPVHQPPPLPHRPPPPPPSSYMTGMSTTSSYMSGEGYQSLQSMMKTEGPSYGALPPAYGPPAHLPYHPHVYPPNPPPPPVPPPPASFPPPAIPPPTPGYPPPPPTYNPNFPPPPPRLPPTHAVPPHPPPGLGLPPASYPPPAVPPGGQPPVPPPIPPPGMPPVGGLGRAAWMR

Molecular target: CDK12/CyclinK (Homo sapiens (Human), UniProt Q9NYV4)
Test: CDK12/cyclinK enzyme activity
Format: biochemical
Conditions: read-out: CDK12/CyclinK (IC50/μM); in vitro

`CC(C)n1cnc2c(NCc3ccc(-c4ccccn4)cn3)nc(-c3cccc(O)c3)nc21` showed an IC50 of 0.713 µM.
